Laboratory results published in PMC7203109.
These are yes or no findings as the source states them, for the method shown. In cells and extracts the contact can be indirect. Some entries that bind do so weakly or less than the wild type.

Amino acid sequences for entries named in this document (tags omitted).
UniProt Q61687: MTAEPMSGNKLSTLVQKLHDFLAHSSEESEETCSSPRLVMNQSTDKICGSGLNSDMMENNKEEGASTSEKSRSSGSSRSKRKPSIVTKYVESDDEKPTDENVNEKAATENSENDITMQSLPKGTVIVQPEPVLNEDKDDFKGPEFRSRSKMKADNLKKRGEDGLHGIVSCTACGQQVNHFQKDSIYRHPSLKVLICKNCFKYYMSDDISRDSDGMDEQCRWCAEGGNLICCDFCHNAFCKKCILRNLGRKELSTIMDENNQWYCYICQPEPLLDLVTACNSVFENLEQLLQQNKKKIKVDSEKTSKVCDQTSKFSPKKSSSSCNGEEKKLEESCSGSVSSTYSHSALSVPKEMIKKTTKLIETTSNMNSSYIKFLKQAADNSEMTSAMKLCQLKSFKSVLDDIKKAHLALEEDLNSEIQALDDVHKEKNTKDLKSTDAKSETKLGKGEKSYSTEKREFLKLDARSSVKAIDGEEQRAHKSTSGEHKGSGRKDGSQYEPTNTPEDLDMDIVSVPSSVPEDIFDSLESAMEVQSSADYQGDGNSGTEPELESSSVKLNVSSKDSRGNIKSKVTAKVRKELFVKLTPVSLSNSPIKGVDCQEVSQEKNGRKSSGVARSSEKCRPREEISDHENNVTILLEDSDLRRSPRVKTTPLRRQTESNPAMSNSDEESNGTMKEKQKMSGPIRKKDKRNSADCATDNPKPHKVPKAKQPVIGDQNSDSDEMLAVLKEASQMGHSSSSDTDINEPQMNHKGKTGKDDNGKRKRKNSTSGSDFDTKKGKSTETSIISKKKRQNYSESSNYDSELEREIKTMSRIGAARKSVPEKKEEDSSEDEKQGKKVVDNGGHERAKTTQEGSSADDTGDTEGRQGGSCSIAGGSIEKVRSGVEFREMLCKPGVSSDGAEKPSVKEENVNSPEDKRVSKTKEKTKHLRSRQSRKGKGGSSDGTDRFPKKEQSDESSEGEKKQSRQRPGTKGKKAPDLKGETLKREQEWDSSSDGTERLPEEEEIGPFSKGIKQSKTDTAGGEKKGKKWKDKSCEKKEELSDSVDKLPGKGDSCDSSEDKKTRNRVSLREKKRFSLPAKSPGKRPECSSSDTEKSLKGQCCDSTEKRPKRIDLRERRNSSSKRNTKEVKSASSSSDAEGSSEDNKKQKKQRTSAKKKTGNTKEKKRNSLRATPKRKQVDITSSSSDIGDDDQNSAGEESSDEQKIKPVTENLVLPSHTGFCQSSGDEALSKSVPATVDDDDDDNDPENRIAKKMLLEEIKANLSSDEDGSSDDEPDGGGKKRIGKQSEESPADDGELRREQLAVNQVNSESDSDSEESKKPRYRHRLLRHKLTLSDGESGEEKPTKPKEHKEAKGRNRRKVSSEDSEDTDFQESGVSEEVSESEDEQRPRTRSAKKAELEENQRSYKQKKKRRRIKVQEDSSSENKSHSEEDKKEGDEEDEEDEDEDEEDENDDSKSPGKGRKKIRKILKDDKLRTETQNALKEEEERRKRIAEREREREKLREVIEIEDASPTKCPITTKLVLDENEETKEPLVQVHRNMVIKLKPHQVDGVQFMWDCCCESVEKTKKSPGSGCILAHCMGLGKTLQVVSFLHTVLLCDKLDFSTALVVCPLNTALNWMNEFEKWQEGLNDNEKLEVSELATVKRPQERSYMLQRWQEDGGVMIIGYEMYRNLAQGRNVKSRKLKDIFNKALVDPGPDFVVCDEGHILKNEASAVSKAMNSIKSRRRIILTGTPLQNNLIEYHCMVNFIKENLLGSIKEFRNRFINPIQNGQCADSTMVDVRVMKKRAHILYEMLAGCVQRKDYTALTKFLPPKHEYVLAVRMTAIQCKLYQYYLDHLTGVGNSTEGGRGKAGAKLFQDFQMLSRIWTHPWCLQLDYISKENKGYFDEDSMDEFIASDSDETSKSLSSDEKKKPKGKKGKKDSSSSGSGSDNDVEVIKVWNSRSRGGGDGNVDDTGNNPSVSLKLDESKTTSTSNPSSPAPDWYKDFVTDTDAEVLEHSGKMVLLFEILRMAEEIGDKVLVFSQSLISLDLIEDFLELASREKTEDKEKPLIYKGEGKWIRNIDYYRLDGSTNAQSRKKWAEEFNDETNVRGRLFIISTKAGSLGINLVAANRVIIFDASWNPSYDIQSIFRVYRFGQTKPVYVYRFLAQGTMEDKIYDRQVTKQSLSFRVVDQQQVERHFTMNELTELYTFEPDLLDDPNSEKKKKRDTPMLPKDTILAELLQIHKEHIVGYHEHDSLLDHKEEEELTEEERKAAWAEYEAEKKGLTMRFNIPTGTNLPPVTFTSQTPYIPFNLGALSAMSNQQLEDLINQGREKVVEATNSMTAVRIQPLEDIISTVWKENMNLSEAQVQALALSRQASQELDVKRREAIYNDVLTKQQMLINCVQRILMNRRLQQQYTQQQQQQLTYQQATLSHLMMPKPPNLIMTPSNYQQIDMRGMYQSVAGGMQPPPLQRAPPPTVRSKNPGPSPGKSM
UniProt O35613: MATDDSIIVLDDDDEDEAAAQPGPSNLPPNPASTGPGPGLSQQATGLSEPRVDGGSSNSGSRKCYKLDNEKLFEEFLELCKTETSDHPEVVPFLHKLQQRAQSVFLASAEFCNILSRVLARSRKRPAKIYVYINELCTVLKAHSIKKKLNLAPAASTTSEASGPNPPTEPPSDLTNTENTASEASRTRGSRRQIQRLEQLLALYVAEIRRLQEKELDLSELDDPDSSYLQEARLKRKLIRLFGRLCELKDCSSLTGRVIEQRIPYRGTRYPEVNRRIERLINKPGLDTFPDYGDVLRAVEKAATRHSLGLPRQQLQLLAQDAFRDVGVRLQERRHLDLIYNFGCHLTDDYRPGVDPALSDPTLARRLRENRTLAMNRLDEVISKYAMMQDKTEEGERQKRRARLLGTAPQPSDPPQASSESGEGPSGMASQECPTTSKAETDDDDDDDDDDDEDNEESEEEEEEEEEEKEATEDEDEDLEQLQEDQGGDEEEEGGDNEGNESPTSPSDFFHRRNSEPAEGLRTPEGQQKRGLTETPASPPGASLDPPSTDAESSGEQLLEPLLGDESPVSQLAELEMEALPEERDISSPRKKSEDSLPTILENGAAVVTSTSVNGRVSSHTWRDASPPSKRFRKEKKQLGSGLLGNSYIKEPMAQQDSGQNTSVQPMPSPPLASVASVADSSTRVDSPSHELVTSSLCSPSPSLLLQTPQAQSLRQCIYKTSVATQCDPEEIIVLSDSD

Target: ATRX (alpha-thalassemia X-linked mental retardation), endogenous wild type in female MEFs (mouse (endogenous in MEFs)) (UniProt Q61687)
Experiment: co-IP; endogenous IP: 1 mg MEF nuclear extract with ATRX antibody coupled to protein A agarose; washed with BC300, eluted with 0.1 M glycine pH 2.5; blots with ATRX and DAXX antibodies; IgG as control

DAXX, endogenous in MEFs (from UniProt O35613 1-739)
binding: binds
